# From US20120003298A1, “METHODS FOR INDUCING AN IMMUNE RESPONSE” (priority 2010, published 2012)
# For at least one compound, name, drawing or mass did not settle the structure. Some entries share one result that the patent states for a list of compounds.
# Tests used:
# [1] = test system: recombinant antigens from Plasmodium falciparum and Mycobacterium ulcerans; test: Pilot immunization study with adjuvanted recombinant protein antigens; format: in vivo, mouse; details: three subcutaneous immunizations, 20 micrograms antigen with 10 nMol adjuvant
# Procedure: A pilot immunization study was conducted using Compound A and SC12 adjuvanted protein antigens. The immunization experiments were performed with two recombinant proteins expressed in E. coli. One antigen was derived from the malaria parasite Plasmodium falciparum and the other one from Mycobacterium ulcerans, which cause the ulcerative skin disease Buruli ulcer.
# human whole blood [2] = test: Cytokine secretion in human whole blood assay, ELISA; format: cell-based; details: all donors
# Procedure: Before drawing the blood, the compounds were added to 96 well round bottom plates in a 10× diluted sample at 20 ul. The compounds were diluted in RPMI media without serum but with antibiotics. Antibiotics were added at a 10× concentration. After drawing the blood, the whole blood sample was gently mixed to obtain a homogeneous sample, and 180 ul was added to each well.
# All compounds were setup in concentrations at 0-0.01-0.03-0.1-0.5-2.0-10.0 micromolar as the final concentration. Vehicle control was DMSO control, where we used the highest concentration used for the compounds. After addition of blood, all plates were gently agitated at 37° C. and 5% CO2 until harvest.
# For the 6 hours time point, the plate was centrifuged 500×g. Supernatant (SN) was transferred to a tube and centrifuged at 10.000×g for 10 min to get rid of cells and protein aggregates. The clarified supernatant was frozen at −80° C. until analysis.
# The SN was removed to another tube and centrifuged at 10.000×g for 10 min. to get rid of aggregates etc. The clarified supernatant was frozen at −80° C. until analysis.
# Concentrations of cytokines were determined by ELISA from R&D Systems. The results were analyzed in Graph Pad Prism in order to prepare dose-response
# curves, and for determination of EC50 values. FACS analysis was made by using Becton-Dickinson FACSDiva software and subsequently illustrated in Graph Pad Prism.
# [3] = In vivo pharmacodynamics, serum cytokines after intravenous injection; set-up: species or system mouse; details: 200 nmol intravenously
# human whole blood [4] = details: Clarke et al. 2009; cited from earlier work
smiles,measurement,setting,value
"CCCCCCCC/C=C\CCCCCCCC(=O)OCC(COP(=O)(O)OCCNC(=O)c1ccc(Cn2c(=O)[nH]c3c(N)nc(OCCOC)nc32)cc1)OC(=O)CCCCCCC/C=C\CCCCCCCC (stereo not drawn) [Compound A, 2-(4-((6-amino-2-(2-methoxyethoxy)-8-oxo-7H-purin-9(8H)-yl)methyl)benzamido)ethyl 2,3-bis(oleoyloxy)propyl phosphate]",IgG responses against the target antigens,[1],developed IgG responses
CCCCCCCCCCCC(=O)OCC(COP(=O)(O)OCCNC(=O)c1ccc(Cn2c(=O)[nH]c3c(N)nc(OCCOC)nc32)cc1)OC(=O)CCCCCCCCCCC (stereo not drawn) [SC12],levels of IL-12p40,human whole blood [2]; 6 hours,8.000 to 12.000 pg/mL
same,levels of IL-12p40,human whole blood [2]; 24 hours,20.000 to 25.000 pg/mL
same,IL-12 induction sustained up to,[3],≤ 76 h
same,TNF-alpha induction sustained up to,[3],up to 48 hours
CCOCc1nc2c(N)nc3ccccc3c2n1CC(C)(C)O [Resiquimod],"IFN-alpha secreted, published data",human whole blood [4],< 200 pg/mL
